# Measurements from PubChem BioAssay AID504834 (National Center for Advancing Translational Sciences (NCATS), 2011).
# About 22,000 (6.9%) of roughly 320,000 compounds were called active. Inconclusive results, whose numbers are uncertain, are shown with a selection of clear calls. Calls come from the whole dose curve; as a rule, active = well fitted inhibition curve with a large enough effect; inconclusive = small, poorly fitted or top-dose-only effect, or another doubt; inactive = no such curve, though single readings can be large or run the other way. Potencies of inconclusive entries are doubtful fits and often do not repeat.
# Experiment: Primary qHTS for delayed death inhibitors of the malarial parasite plastid, 96 hour incubation
# Settings: P. falciparum luciferase reporter growth; series mostly up to 28.7 µM
# How it was run: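 Delayed-death screen, second-generation endpoint: infected erythrocytes, 2% hematocrit, 0.05% parasitemia final; 96 hours at 37 C, 5% CO2; luciferase detection reagent; luminescence decrease equals reduced growth.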
# Potency is the fitted concentration of half-maximal effect.
row,Structure (SMILES),Potency
1,FC(F)(F)c1cccc(N2CCN(c3ccc4nnc(-c5ccccc5)n4n3)CC2)c1,"inconclusive: 11.7 µM [inhibitor, partial curve, poor fit]"
2,Cc1cccc(NC(=O)c2sc(C)nc2C)c1,inactive
3,CCN(CC)CCN(C(=O)c1cccc([N+](=O)[O-])c1)c1nc2ccc(OC)cc2s1,inactive
4,COc1ccc(S(=O)(=O)N2CCCCC2)cc1NC(=O)c1cc([N+](=O)[O-])ccc1N1CCOCC1,"inconclusive: 3.29 µM [inhibitor, single point]"
5,COc1ccc(S(=O)(=O)N2CCOCC2)c(C)c1C,inactive
6,Cc1ccc(N(CC(=O)N/N=C/c2ccc(OC3CSC3)cc2)S(=O)(=O)c2ccccc2)c(C)c1,active: 11.7 µM
7,COc1cccc(C(=O)Nc2cc(C)ccc2NC(=O)COc2ccccc2)c1,inactive
8,C=CCn1c(O)c(C(CC)=NCCN2CCN(C(=S)NC)CC2)c(=O)[nH]c1=O,"inconclusive: 0.0029 µM [inhibitor, full curve, poor fit]"
9,CSc1nc(C)c(CCOC(=O)c2ccccc2)c(=O)[nH]1,"inconclusive: 11.7 µM [inhibitor, single point]"
10,COc1ccc(-c2nc(CS(=O)(=O)CC(=O)NC3CCCCCC3)c(C)o2)cc1,"inconclusive: 11.7 µM [inhibitor, single point]"
11,OCCN1CCN(c2nc(-c3ccccc3)nc3c2oc2ccccc23)CC1,"inconclusive: 9.28 µM [inhibitor, partial curve, poor fit]"
12,CCCc1c(C(=O)N/N=C/c2ccc(OC)c(OCc3ccccc3)c2)nnn1-c1nonc1N,"inconclusive: 16.5 µM [inhibitor, single point]"
13,O=C(c1cc(C(=O)N2CCOCC2)c2nc3ccccc3n2c1)c1cc(Cl)cc(Cl)c1O,inactive
14,CN(C)c1ccc(/C=C/C(=O)c2cccc(Br)c2)cc1,"inconclusive: 4.15 µM [inhibitor, single point]"
15,CN1CCN(S(=O)(=O)c2cccc(C(=O)N(Cc3nnc(-c4ccc(Cl)cc4)o3)C3CC3)c2)CC1,"inconclusive: 18.5 µM [inhibitor, single point]"
16,Cc1ccccc1N(CC(=O)O)S(C)(=O)=O,"inconclusive: 18.5 µM [inhibitor, single point]"
17,COc1cccc(C(=O)c2sc(NC(C)C)nc2N)c1,"inconclusive: 13.1 µM [inhibitor, single point]"
18,COc1cc2c(cc1NC(=O)C(C)NCc1ccccc1)oc1ccccc12 (stereo not drawn),"inconclusive: 18.5 µM [inhibitor, single point]"
